# Results taken from article PMC9475550.
# Amino acid sequences for entries named in this document (tags omitted).
# UniProt P61586: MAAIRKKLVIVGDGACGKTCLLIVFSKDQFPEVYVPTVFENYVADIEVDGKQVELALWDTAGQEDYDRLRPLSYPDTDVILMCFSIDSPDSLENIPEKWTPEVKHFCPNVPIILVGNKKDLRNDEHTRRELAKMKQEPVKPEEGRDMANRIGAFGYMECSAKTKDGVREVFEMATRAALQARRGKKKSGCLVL
# UniProt Q9NR31: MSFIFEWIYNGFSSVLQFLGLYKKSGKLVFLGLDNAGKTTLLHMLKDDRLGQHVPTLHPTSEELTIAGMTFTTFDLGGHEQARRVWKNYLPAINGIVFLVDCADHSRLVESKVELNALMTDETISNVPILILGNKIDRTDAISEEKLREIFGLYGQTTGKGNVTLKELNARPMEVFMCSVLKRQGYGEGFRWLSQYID
# No constants are given. Whether binding was seen depends on the method and setting. In cells and extracts the contact can be indirect.
# Biological target: RhoA (UniProt P61586)
# Test: co-IP; HeLa cotransfected with GFP-tagged GTPase and Sar1A-mCherry, incubated overnight; immunoprecipitation against GFP, immunoblot with anti-mCherry
substance,measurement,value
Sar1A‐mCherry (from UniProt Q9NR31 1-198),binding,no binding
